Source: PMC3492271
These are yes or no findings as the source states them, for the method shown. In cells and extracts the contact can be indirect. Some results given as binding are weak or reduced against the parent protein; the word gives no strength.

The chains behind the UniProt entries cited, without tags or fusion partners.
UniProt P12956: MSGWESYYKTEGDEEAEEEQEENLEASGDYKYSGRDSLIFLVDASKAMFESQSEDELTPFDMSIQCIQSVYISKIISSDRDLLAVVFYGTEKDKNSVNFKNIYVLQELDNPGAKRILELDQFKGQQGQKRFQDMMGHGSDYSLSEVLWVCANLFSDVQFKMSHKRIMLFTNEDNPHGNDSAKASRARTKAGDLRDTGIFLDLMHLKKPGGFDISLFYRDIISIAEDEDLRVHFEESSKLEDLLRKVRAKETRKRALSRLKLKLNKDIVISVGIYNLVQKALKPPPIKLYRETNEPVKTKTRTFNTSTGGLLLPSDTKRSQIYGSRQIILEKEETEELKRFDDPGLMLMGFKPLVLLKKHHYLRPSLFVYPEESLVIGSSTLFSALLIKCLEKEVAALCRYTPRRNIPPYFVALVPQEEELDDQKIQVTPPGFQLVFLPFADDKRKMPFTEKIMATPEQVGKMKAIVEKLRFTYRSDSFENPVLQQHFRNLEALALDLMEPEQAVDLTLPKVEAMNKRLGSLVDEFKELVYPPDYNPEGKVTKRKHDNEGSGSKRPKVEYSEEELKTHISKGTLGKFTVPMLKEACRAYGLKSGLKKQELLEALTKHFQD
UniProt O60934: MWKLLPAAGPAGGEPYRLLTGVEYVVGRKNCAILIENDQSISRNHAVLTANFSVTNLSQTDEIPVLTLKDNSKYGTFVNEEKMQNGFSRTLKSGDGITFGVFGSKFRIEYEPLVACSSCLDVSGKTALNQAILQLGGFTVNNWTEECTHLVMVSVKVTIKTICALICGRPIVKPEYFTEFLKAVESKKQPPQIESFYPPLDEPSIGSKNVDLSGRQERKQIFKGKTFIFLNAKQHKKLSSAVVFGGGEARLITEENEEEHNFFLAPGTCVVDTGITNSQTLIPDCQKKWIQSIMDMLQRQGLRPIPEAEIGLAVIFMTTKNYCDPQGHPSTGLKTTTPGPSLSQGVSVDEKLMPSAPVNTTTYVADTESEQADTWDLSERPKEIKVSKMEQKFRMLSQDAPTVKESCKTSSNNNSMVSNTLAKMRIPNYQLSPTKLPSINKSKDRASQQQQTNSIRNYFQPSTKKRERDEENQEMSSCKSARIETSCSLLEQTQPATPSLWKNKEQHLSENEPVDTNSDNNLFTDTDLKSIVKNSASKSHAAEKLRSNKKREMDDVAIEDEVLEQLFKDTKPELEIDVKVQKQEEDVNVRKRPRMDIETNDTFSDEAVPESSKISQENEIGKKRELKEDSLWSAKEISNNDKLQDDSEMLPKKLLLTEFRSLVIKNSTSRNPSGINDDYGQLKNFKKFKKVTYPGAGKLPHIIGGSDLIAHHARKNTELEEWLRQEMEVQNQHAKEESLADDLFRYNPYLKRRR
UniProt P15927: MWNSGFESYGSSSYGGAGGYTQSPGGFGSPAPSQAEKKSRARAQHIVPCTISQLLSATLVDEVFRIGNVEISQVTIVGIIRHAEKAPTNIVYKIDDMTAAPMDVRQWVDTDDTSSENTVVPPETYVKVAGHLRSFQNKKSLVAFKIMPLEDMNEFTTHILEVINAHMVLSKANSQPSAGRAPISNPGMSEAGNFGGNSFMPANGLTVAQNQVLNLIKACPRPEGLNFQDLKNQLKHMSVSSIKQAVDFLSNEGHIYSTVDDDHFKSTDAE

How the values were obtained:
[1] = target: nucleolin (endogenous, normal lymphoblastoid cells) (human (endogenous in normal lymphoblastoid cells)) (UniProt P19338); assay: co-IP; endogenous proteins; extracts from normal lymphoblastoid cells with or without IR; immunoprecipitation with an antibody to the target or normal rabbit IgG; Western blot
[2] = target: GST-fused human H2AX (wild type) (human) (UniProt P16104); assay: pull-down; purified GST-fused histone as bait; nuclear extract of irradiated or un-irradiated HeLa cells; Western blot; only the target purified

Substance | binding [1] | binding [2]
KU70 (endogenous) (from UniProt P12956 1-609) | binds | 
NBS1 (endogenous, HeLa nuclear extract) (from UniProt O60934 1-754) |  | no binding
NBS1 (endogenous, normal lymphoblastoid cells) (from UniProt O60934 1-754) | binds | 
RPA34 (endogenous) (from UniProt P15927 1-270) | binds | 
